Taken from: PubChem BioAssay AID652243 (Drosophila RNAi Screening Center, 2013)
Test: 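Fly genes required for human androgen receptor driven transcription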 (primary screen). Cells: Drosophila S2R+ cells. Reagents: long dsRNA against Drosophila genes. Duration: 72 h (48 h, then 24 h hormone). Conditions: synthetic androgen R1881 at 10 nM for 24 h. Read-out: 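Per-well raw luminescence of the androgen-driven firefly reporter and of the Renilla control, two replicates each, without normalisation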. Scale: firefly reporter light: higher = more light from androgen-responsive reporter; Renilla control light: higher = more constitutive control signal (cell number, transfection). Hit rule: 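Hit when the log firefly-to-Renilla ratio dropped or increased by a fixed fold versus the mean of GFP or LacZ controls across duplicate plates; lowering cut given as 1.5 and as 3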. Meaning of the calls: active = hit: reporter lowered or raised; inactive = no hit.
In all, the deposit lists about 24,000 reagents; below is a random part of those that have a named target and a result. Of all reagents, 246 (1%) were called active. 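Plates not normalised; calls are printed but the firefly/Renilla ratio behind them is not deposited; fold cut for lowering reported inconsistently.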 The raw values are shown without normalisation. Unmarked entries are inactive. Reagents against one gene are numbered here. Names joined by + are all predicted targets of the reagent. Not given: the amount of reagent.

gene knocked down | reagent | firefly reporter light, replicate 1 | firefly reporter light, replicate 2 | Renilla control light, replicate 1 | Renilla control light, replicate 2
CG4119 | 1 | 76220 | 98367 | 9.10e5 | 9.40e5
CG4119 | 2 | 2.80e5 | 1.51e5 | 2.80e6 | 1.37e6
CG17778 | 1 | 2.57e5 | 1.89e5 | 3.87e6 | 3.05e6
Uba2 (Ubiquitin-like activating enzyme 2) | 1 | 2.59e5 | 2.54e5 | 3.27e6 | 2.82e6
Idh (Isocitrate dehydrogenase) | 1 | 8.02e5 | 6.95e5 | 1.24e6 | 1.30e6
CG34011 | 1 | 1.06e6 | 7.50e5 | 2.00e6 | 1.82e6
Dpy-30L1 (Dpy-30-like 1) | 1 | 1.32e5 | 1.33e5 | 1.37e6 | 1.78e6
Dpy-30L1 (Dpy-30-like 1) | 2 | 1.23e6 | 1.18e6 | 1.62e6 | 1.52e6
CG3285 | 1 | 1.02e6 | 9.30e5 | 2.67e6 | 2.08e6
unc79 (uncoordinated 79) | 1 | 95375 | 1.39e5 | 8.05e5 | 9.72e5
unc79 (uncoordinated 79) | 2 | 5.62e5 | 7.81e5 | 7.98e5 | 1.07e6
sbr (small bristles) | 1 | 2.88e5 | 2.52e5 | 2.55e6 | 2.75e6
sbr (small bristles) | 2 | 1.42e5 (active) | 1.15e5 | 2.06e6 | 2.19e6
sbr (small bristles) | 3 | 3.01e5 | 2.10e5 | 1.10e6 | 1.09e6
mRpS14 (mitochondrial ribosomal protein S14) | 1 | 1.41e5 | 1.33e5 | 4.49e5 | 4.28e5
CG13223 | 1 | 3.04e5 | 2.38e5 | 1.58e6 | 1.69e6
NHP2 | 1 | 1.07e5 | 81132 | 9.75e5 | 8.48e5
NHP2 | 2 | 3.45e5 | 3.26e5 | 3.21e5 | 3.63e5
S-Lap7 (Sperm-Leucylaminopeptidase 7) | 1 | 54802 | 70017 | 5.26e5 | 5.26e5
S-Lap7 (Sperm-Leucylaminopeptidase 7) | 2 | 6.07e5 | 4.35e5 | 1.08e6 | 9.66e5
Mfe2 (peroxisomal Multifunctional enzyme type 2) | 1 | 93370 | 1.32e5 | 8.79e5 | 8.36e5
CG43327 + CG43328 | 1 | 3.04e5 | 2.19e5 | 6.36e5 | 4.84e5
ais (aramis) | 1 | 40526 | 36742 | 4.86e5 | 3.39e5
ais (aramis) | 2 | 7.41e5 | 7.20e5 | 6.29e5 | 1.01e6

Reagents above marked active, once more:
gene knocked down | reagent | firefly reporter light, replicate 1 | firefly reporter light, replicate 2 | Renilla control light, replicate 1 | Renilla control light, replicate 2
sbr (small bristles) | 2 | 1.42e5 (active) | 1.15e5 | 2.06e6 | 2.19e6
